The values below come from publication doi:10.1101/137844.

Sequences and labels used below:
B1: RCD1 PARP (amino acids 265-460) (domain or fragment, UniProt Q8RY59 265-460)
chain: AKLTGSEVLDKDAVKKMFAVGTASLGHVPVLDVGRFSSEIAEARLALFQKQVEITKKHRGDANVRYAWLPAKREVLSAVMMQGLGVGGAFIRKSIYGVGIHLTAADCPYFSARYCDVDENGVRYMVLCRVIMGNMELLRGDKAQFFSGGEEYDNGVDDIESPKNYIVWNINMNTHIFPEFVVRFKLSNLPNAEGNL
B2: RCD1 WWE---PARP (amino acids 1-460) (domain or fragment, UniProt Q8RY59 1-460)
chain: MEAKIVKVLDSSRCEDGFGKKRKRAASYAAYVTGVSCAKLQNVPPPNGQCQIPDKRRRLEGENKLSAYENRSGKALVRYYTYFKKTGIAKRVMMYENGEWNDLPEHVICAIQNELEEKSAAIEFKLCGHSFILDFLHMQRLDMETGAKTPLAWIDNAGKCFFPEIYESDERTNYCHHKCVEDPKQNAPHDIKLRLEIDVNGGETPRLNLEECSDESGDNMMDDVPLAQRSSNEHYDEATEDSCSRKLEAAVSKWDETDAIVVSGAKLTGSEVLDKDAVKKMFAVGTASLGHVPVLDVGRFSSEIAEARLALFQKQVEITKKHRGDANVRYAWLPAKREVLSAVMMQGLGVGGAFIRKSIYGVGIHLTAADCPYFSARYCDVDENGVRYMVLCRVIMGNMELLRGDKAQFFSGGEEYDNGVDDIESPKNYIVWNINMNTHIFPEFVVRFKLSNLPNAEGNL
B3: RCD1 ---PARP (amino acids 170-460) (domain or fragment, UniProt Q8RY59 170-460)
chain: ERTNYCHHKCVEDPKQNAPHDIKLRLEIDVNGGETPRLNLEECSDESGDNMMDDVPLAQRSSNEHYDEATEDSCSRKLEAAVSKWDETDAIVVSGAKLTGSEVLDKDAVKKMFAVGTASLGHVPVLDVGRFSSEIAEARLALFQKQVEITKKHRGDANVRYAWLPAKREVLSAVMMQGLGVGGAFIRKSIYGVGIHLTAADCPYFSARYCDVDENGVRYMVLCRVIMGNMELLRGDKAQFFSGGEEYDNGVDDIESPKNYIVWNINMNTHIFPEFVVRFKLSNLPNAEGNL
B4: RCD1 WWE (amino acids 1-170) (domain or fragment, UniProt Q8RY59 1-170)
chain: MEAKIVKVLDSSRCEDGFGKKRKRAASYAAYVTGVSCAKLQNVPPPNGQCQIPDKRRRLEGENKLSAYENRSGKALVRYYTYFKKTGIAKRVMMYENGEWNDLPEHVICAIQNELEEKSAAIEFKLCGHSFILDFLHMQRLDMETGAKTPLAWIDNAGKCFFPEIYESDE
B5: RCD1 WWE--- (amino acids 1-265) (domain or fragment, UniProt Q8RY59 1-265)
chain: MEAKIVKVLDSSRCEDGFGKKRKRAASYAAYVTGVSCAKLQNVPPPNGQCQIPDKRRRLEGENKLSAYENRSGKALVRYYTYFKKTGIAKRVMMYENGEWNDLPEHVICAIQNELEEKSAAIEFKLCGHSFILDFLHMQRLDMETGAKTPLAWIDNAGKCFFPEIYESDERTNYCHHKCVEDPKQNAPHDIKLRLEIDVNGGETPRLNLEECSDESGDNMMDDVPLAQRSSNEHYDEATEDSCSRKLEAAVSKWDETDAIVVSGA

Results are given in words; binding and its absence hold for the method and conditions named.

The test has as its target HaRxL106ΔC (yeast two-hybrid bait) (Hyaloperonospora arabidopsidis (Emoy2)). Briefly: two-hybrid.
Take B1: the binding result is given as “no binding”. In the case of B2 it was “no binding”.

As to B3, the binding result is on record as “no binding”. In the case of B4 it was “no binding”.

With B5, the binding result is given as “no binding”.
